Patent publication US20230103352A1
Results are given in words; binding and its absence hold for the method and conditions named. In cells and extracts the contact can be indirect. Some entries that bind do so weakly or less than the wild type.

Chains of the proteins cited; added tags and fusions are not shown.
UniProt P29351: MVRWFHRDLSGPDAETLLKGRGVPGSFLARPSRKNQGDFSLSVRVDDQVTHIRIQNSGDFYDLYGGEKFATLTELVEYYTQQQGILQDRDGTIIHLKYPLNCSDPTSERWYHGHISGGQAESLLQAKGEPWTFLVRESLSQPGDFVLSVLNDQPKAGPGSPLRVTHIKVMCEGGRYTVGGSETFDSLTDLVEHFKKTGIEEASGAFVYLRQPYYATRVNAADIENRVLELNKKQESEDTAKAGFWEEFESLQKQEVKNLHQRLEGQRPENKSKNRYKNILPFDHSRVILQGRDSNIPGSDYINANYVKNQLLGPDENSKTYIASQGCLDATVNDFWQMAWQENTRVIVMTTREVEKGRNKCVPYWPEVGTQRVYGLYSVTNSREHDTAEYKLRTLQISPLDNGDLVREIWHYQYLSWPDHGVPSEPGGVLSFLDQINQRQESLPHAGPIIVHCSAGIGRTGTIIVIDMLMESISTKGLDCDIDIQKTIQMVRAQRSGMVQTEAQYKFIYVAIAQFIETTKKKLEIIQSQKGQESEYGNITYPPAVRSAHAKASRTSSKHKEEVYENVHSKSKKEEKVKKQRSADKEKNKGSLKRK

Columns and labels:
Siglec G (mouse) [1] = target: T1, Siglec G (mouse) (UniProt Q80ZE3); assay: co-immunoprecipitation: Siglec G immunoprecipitated from CD24-/- spleen cells stimulated with 1 µg/ml CD24Fc, probed with anti-SHP-1 (FIG. 5C)
T1 sequence (looked up): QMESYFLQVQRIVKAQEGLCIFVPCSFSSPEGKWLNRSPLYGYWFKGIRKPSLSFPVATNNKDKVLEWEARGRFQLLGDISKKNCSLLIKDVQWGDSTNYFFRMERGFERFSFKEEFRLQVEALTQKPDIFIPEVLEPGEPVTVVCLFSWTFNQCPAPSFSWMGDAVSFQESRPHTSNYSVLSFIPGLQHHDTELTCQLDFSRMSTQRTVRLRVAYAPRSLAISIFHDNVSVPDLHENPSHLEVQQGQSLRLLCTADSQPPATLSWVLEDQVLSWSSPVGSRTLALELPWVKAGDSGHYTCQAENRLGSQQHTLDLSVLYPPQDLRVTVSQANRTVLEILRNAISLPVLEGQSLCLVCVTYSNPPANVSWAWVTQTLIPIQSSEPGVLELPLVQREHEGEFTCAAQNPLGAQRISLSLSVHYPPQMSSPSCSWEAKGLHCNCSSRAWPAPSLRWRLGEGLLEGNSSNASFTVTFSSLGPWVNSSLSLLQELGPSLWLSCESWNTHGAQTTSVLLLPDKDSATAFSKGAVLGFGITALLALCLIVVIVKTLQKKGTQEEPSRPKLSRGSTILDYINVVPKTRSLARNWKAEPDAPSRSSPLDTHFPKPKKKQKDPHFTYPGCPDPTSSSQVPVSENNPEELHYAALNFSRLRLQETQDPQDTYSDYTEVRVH

Siglec G (mouse) [2] = target: T1, Siglec G (mouse); assay: co-immunoprecipitation: Siglec G immunoprecipitated from CD24Fc-stimulated CD24-/- spleen cells, probed with anti-SHP-1
Siglec G (mouse) [3] = target: T1, Siglec G (mouse); assay: co-immunoprecipitation: Siglec G immunoprecipitated from CD24-/- mouse spleen cells stimulated for 30 minutes with 1 µg/ml CD24Fc, control Fc or PBS, Western blot with anti-SHP-1

Measured: binding

SHP-1 (from UniProt P29351 1-595) (enzyme)
binds: all assays above
